No constants are given. Whether binding was seen depends on the method and setting. Binding seen in cells or lysates may run through a third protein. Some binding calls cover weakened binding; strength is not graded here. For part of these data: Tags and fused reporters may be left off the sequences shown.
B1: OTUD5 with Myc tag (enzyme, UniProt Q96G74 1-571)
chain: MTILPKKKPPPPDADPANEPPPPGPMPPAPRRGGGVGVGGGGTGVGGGDRDRDSGVVGARPRASPPPQGPLPGPPGALHRWALAVPPGAVAGPRPQQASPPPCGGPGGPGGGPGDALGAAAAGVGAAGVVVGVGGAVGVGGCCSGPGHSKRRRQAPGVGAVGGGSPEREEVGAGYNSEDEYEAAAARIEAMDPATVEQQEHWFEKALRDKKGFIIKQMKEDGACLFRAVADQVYGDQDMHEVVRKHCMDYLMKNADYFSNYVTEDFTTYINRKRKNNCHGNHIEMQAMAEMYNRPVEVYQYSTGTSAVEPINTFHGIHQNEDEPIRVSYHRNIHYNSVVNPNKATIGVGLGLPSFKPGFAEQSLMKNAIKTSEESWIEQQMLEDKKRATDWEATNEAIEEQVARESYLQWLRDQEKQARQVRGPSQPRKASATCSSATAAASSGLEEWTSRSPRQRSSASSPEHPELHAELGMKPPSPGTVLALAKPPSPCAPGTSSQFSAGADRATSPLVSLYPALECRALIQQMSPSAFGLNDWDDDEILASVLAVSQQEYLDSMKKNKVHRDPPPDKS
B2: endogenous OTUD5 (enzyme, UniProt Q96G74 1-571)
chain: MTILPKKKPPPPDADPANEPPPPGPMPPAPRRGGGVGVGGGGTGVGGGDRDRDSGVVGARPRASPPPQGPLPGPPGALHRWALAVPPGAVAGPRPQQASPPPCGGPGGPGGGPGDALGAAAAGVGAAGVVVGVGGAVGVGGCCSGPGHSKRRRQAPGVGAVGGGSPEREEVGAGYNSEDEYEAAAARIEAMDPATVEQQEHWFEKALRDKKGFIIKQMKEDGACLFRAVADQVYGDQDMHEVVRKHCMDYLMKNADYFSNYVTEDFTTYINRKRKNNCHGNHIEMQAMAEMYNRPVEVYQYSTGTSAVEPINTFHGIHQNEDEPIRVSYHRNIHYNSVVNPNKATIGVGLGLPSFKPGFAEQSLMKNAIKTSEESWIEQQMLEDKKRATDWEATNEAIEEQVARESYLQWLRDQEKQARQVRGPSQPRKASATCSSATAAASSGLEEWTSRSPRQRSSASSPEHPELHAELGMKPPSPGTVLALAKPPSPCAPGTSSQFSAGADRATSPLVSLYPALECRALIQQMSPSAFGLNDWDDDEILASVLAVSQQEYLDSMKKNKVHRDPPPDKS

By UniProt entry, the sequences of proteins in these tests, tags left out.
UniProt P03146: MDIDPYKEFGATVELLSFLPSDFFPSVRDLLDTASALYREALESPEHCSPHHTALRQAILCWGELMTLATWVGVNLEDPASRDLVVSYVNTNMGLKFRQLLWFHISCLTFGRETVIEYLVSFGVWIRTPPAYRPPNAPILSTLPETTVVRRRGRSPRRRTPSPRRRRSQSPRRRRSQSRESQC
UniProt P03165: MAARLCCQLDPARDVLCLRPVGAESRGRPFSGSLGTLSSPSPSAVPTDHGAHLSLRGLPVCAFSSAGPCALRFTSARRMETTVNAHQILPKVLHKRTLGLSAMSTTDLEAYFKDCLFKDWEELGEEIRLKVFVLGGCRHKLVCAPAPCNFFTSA

Assays:
[1] = target: hepatitis B core protein with Flag tag (hepatitis B virus) (UniProt P03146); assay: co-IP; HEK293T co-transfected with Myc-OTUD5 and a Flag-tagged HBV protein; lysed 48 h after transfection in 50 mM Tris-HCl pH 8.0, 150 mM NaCl, 1% NP-40; lysates incubated overnight with anti-FLAG M2 magnetic beads (Fig. 4B-D) or anti-Myc magnetic beads (Fig. 4E-G)
[2] = target: hepatitis B x protein with Flag tag (hepatitis B virus) (UniProt P03165); assay: as above
[3] = target: endogenous HBV core (hepatitis B virus (produced in HepG2.2.15)) (UniProt P03146); assay: co-IP; HepG2.2.15 cells treated with MG132 for 8 h; lysates IP with anti-HBc, IB with anti-OTUD5; endogenous proteins

Binder | binding [1] | binding [2] | binding [3]
B1 | binds | no binding | 
B2 |  |  | binds

From PMC10613150
